In doi:10.1101/591909:
These are yes or no findings as the source states them, for the method shown. For some of these results: Binding seen in cells or lysates may run through a third protein. Some results given as binding are weak or reduced against the parent protein; the word gives no strength.

Amino acid sequences for entries named in this document (tags omitted). Residues count along the entry.
UniProt P84091: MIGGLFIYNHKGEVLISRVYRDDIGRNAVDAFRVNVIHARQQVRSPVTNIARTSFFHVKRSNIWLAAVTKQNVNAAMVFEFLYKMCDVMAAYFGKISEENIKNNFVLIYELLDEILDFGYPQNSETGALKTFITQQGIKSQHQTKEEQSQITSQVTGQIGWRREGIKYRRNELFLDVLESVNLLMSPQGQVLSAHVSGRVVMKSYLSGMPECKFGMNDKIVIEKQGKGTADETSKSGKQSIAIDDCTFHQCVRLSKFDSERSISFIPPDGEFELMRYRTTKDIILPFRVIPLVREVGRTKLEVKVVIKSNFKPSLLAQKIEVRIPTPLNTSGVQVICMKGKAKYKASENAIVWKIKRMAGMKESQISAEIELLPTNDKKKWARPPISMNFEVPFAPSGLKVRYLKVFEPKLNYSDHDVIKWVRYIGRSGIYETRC
UniProt P15209, residues 32-821: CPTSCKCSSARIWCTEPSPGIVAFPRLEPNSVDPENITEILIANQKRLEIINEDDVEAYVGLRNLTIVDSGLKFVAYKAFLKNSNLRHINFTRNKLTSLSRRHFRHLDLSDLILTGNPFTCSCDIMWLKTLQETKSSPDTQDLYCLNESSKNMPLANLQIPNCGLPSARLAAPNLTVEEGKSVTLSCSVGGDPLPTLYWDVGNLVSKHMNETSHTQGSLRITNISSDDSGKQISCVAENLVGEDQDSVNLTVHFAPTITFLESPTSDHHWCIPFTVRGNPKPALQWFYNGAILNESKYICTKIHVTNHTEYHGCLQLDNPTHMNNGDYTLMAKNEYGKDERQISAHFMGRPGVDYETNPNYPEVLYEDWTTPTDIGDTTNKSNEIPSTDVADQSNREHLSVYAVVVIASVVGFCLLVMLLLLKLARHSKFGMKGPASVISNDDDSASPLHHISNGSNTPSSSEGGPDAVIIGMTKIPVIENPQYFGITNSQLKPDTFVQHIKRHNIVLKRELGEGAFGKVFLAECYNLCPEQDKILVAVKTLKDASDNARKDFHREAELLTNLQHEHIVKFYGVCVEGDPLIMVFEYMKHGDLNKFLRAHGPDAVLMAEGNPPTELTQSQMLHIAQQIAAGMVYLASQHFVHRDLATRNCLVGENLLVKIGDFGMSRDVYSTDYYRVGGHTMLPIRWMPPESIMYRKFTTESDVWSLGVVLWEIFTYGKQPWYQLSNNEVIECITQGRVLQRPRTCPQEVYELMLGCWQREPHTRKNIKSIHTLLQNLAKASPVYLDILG

Assays:
[1] = target: AP-2 complex subunit mu (AP2M), endogenous in MG87.TRKB cells (mouse (endogenous in MG87.TRKB 3T3 fibroblasts)) (UniProt P84091); test: ELISA
[2] = target: AP-2 complex subunit mu (AP2M), endogenous in mouse hippocampus (mouse (endogenous in hippocampus)) (UniProt P84091); test: co-IP

Q: How did the binding [1] turn out when “TRKB C-terminal peptide, phosphorylated (last 26 amino acids of rat TRKB, pY816) (from UniProt Q63604 796-821)” was run?
A: binds

Q: “TRKB (tropomyosin-related kinase B), BDNF receptor, endogenous in mouse hippocampus (from UniProt P15209 32-821)” was tested. Which binding [2] did it give?
A: binds

Q: Which binding [1] does the source give for “TRKB C-terminal peptide, control (last 26 amino acids of rat TRKB) (from UniProt Q63604 796-821)” here?
A: binds

Q: For RKNIKNIHTLLQNLAKASPVALDILG (peptide, UniProt Q63604 796-821, biotin on the N-terminus) [TRKB C-terminal peptide, Y816A (last 26 amino acids of rat TRKB)], which binding [1] is on record?
A: binds
